Three molecules from article doi:10.1101/2022.11.21.517319 can be followed below.

Holding throughout (experiment): co-IP
The target in experiment [1] is T1, FLAG-tagged TTG1 (Arabidopsis) (UniProt Q9XGN1).
T1 sequence: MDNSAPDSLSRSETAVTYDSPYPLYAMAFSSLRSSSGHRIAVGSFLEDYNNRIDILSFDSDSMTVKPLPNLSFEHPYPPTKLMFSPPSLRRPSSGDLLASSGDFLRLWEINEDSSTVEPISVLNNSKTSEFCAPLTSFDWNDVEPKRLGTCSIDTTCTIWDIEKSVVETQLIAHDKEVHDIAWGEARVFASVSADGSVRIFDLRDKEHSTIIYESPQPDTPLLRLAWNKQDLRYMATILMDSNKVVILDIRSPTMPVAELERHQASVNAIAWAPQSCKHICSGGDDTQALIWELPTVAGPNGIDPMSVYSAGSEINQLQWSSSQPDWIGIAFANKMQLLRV

Experiment [2] addresses T2, FLAG-tagged bHLH2 (Arabidopsis) (UniProt Q9CAD0).
T2 sequence: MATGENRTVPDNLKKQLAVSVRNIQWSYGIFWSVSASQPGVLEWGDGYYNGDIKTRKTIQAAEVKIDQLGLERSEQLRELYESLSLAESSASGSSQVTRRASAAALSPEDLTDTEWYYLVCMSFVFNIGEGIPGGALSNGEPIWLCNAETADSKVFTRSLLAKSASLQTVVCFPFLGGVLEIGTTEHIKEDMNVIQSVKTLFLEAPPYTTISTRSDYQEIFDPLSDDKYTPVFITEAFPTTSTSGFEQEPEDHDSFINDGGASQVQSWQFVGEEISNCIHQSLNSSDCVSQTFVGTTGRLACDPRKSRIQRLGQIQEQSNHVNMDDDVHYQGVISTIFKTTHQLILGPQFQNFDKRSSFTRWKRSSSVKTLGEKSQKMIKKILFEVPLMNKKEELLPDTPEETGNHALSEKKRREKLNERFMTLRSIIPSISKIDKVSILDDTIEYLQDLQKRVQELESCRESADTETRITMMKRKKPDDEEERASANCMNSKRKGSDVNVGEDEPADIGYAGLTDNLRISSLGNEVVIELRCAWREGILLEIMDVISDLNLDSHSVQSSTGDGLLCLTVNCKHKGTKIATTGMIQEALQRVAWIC

Experiment [3] addresses T3, FLAG-tagged MYB75 (Arabidopsis) (UniProt Q9FE25).
T3 sequence: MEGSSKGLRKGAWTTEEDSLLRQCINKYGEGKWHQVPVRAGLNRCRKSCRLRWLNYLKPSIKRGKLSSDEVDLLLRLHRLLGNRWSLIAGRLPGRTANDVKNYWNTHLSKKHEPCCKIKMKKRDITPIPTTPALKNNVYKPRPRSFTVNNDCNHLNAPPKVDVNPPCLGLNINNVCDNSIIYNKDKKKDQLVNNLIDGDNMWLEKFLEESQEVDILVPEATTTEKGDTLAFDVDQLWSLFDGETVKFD

These are yes or no findings as the source states them, for the method shown. In cells and extracts the contact can be indirect. Some results given as binding are weak or reduced against the parent protein; the word gives no strength. Where a sequence is shown, tags or fusion partners need not be part of it.

B1: HA-tagged MYB75 (protein, UniProt Q9FE25 1-248)
chain: MEGSSKGLRKGAWTTEEDSLLRQCINKYGEGKWHQVPVRAGLNRCRKSCRLRWLNYLKPSIKRGKLSSDEVDLLLRLHRLLGNRWSLIAGRLPGRTANDVKNYWNTHLSKKHEPCCKIKMKKRDITPIPTTPALKNNVYKPRPRSFTVNNDCNHLNAPPKVDVNPPCLGLNINNVCDNSIIYNKDKKKDQLVNNLIDGDNMWLEKFLEESQEVDILVPEATTTEKGDTLAFDVDQLWSLFDGETVKFD
For B1, the binding result in experiment [1] and in experiment [2] was “binds” each time.

B2: HA-tagged bHLH2 (protein, UniProt Q9CAD0 1-596)
chain: MATGENRTVPDNLKKQLAVSVRNIQWSYGIFWSVSASQPGVLEWGDGYYNGDIKTRKTIQAAEVKIDQLGLERSEQLRELYESLSLAESSASGSSQVTRRASAAALSPEDLTDTEWYYLVCMSFVFNIGEGIPGGALSNGEPIWLCNAETADSKVFTRSLLAKSASLQTVVCFPFLGGVLEIGTTEHIKEDMNVIQSVKTLFLEAPPYTTISTRSDYQEIFDPLSDDKYTPVFITEAFPTTSTSGFEQEPEDHDSFINDGGASQVQSWQFVGEEISNCIHQSLNSSDCVSQTFVGTTGRLACDPRKSRIQRLGQIQEQSNHVNMDDDVHYQGVISTIFKTTHQLILGPQFQNFDKRSSFTRWKRSSSVKTLGEKSQKMIKKILFEVPLMNKKEELLPDTPEETGNHALSEKKRREKLNERFMTLRSIIPSISKIDKVSILDDTIEYLQDLQKRVQELESCRESADTETRITMMKRKKPDDEEERASANCMNSKRKGSDVNVGEDEPADIGYAGLTDNLRISSLGNEVVIELRCAWREGILLEIMDVISDLNLDSHSVQSSTGDGLLCLTVNCKHKGTKIATTGMIQEALQRVAWIC
Turning to B2, the binding entry in experiment [3] and in experiment [1] was “binds” each time.

B3: HA-tagged TTG1 (protein, UniProt Q9XGN1 1-341)
chain: MDNSAPDSLSRSETAVTYDSPYPLYAMAFSSLRSSSGHRIAVGSFLEDYNNRIDILSFDSDSMTVKPLPNLSFEHPYPPTKLMFSPPSLRRPSSGDLLASSGDFLRLWEINEDSSTVEPISVLNNSKTSEFCAPLTSFDWNDVEPKRLGTCSIDTTCTIWDIEKSVVETQLIAHDKEVHDIAWGEARVFASVSADGSVRIFDLRDKEHSTIIYESPQPDTPLLRLAWNKQDLRYMATILMDSNKVVILDIRSPTMPVAELERHQASVNAIAWAPQSCKHICSGGDDTQALIWELPTVAGPNGIDPMSVYSAGSEINQLQWSSSQPDWIGIAFANKMQLLRV
As for B3, the binding entry in experiment [3] and in experiment [2] was “binds” throughout.
